Results taken from patent US20250222125A1, “Anti-FGFR2b Antibodies, Conjugates and Methods of Use” (BeiGene, Ltd., priority 2024, published 2025).

B1: BGAh9239: humanized anti-FGFR2b IgG1 antibody from murine BGAm1823; VH SEQ ID NO: 9, VL SEQ ID NO: 10 (antibody, V domains shown)
VH: QVQLVQSGAEVKKPGSSVKVSCKASGYTFSIYWLNWVRQAPGQGLEWMGQIYPENADTNYSGKFKGRVTITADKSTSTAYMELSSLRSEDTAVYFCARGGFDYWGQGTLVTVSS
VL: DIQMTQSPSSLSASVGDRVTITCRASENIYSNLAWYQQKPGKAPKLLIYTATNLAEGVPSRFSGSGSGTDFTLTISSLQPEDFATYYCQHFYGILYTFGQGTRLEIK
modifications: Synthetic: VH AA; Synthetic: VL AA
B2: BGAm1823: parental murine anti-FGFR2b antibody; VH SEQ ID NO: 28, VL SEQ ID NO: 30 (antibody, V domains shown)
VH: EVQLQQSGAELVKPGASVKISCKASGYAFSIYWMNWVKQRPGKGLEWIGQIYPENGDTNYNGKFKGKATLTADKSSSTAYMHLSSLTSEDSAVYFCARGGFDYWGQGTTLTVSS
VL: NIVMTQSPASLSASVGETVTITCRASENIYSNLAWYQQKQGKSPQLLVYTATNLADGVPSRFSGSGSGTQFSLKINSLQPEDFGSYYCQHFYGILYTFGSGTRLEIK
modifications: Synthetic: VH AA; Synthetic: VL AA
B3: BGAh9179: humanized anti-FGFR2b IgG1 antibody from murine BGAm1371; VH SEQ ID NO: 21, VL SEQ ID NO: 22 (antibody, V domains shown)
VH: QVQLVQSGAEVKKPGASVKVSCKASGYTITDTYIHWVRQAPGQGLEWMGRIDPAEGNTMFASEFQGRVTMTADTSTSTVYMELSSLRSEDTAVYYCARSKIHYDYDEGFAYWGQGTLVTVSS
VL: DIVLTQSPDSLAVSLGERATINCRASESVDDYGYSFLHWYQQKPGQPPKLLIYRASNLESGVPDRFSGSGSGTDFTLTISSLQAEDVAVYYCQQSNQNPRTFGGGTKVEIK
modifications: Synthetic: VH AA; Synthetic: VL AA
B4: BGAm1371: parental murine anti-FGFR2b antibody (parental mouse clone); VH SEQ ID NO: 32, VL SEQ ID NO: 34 (antibody, V domains shown)
VH: QVQLKQSGAELVKPGASVKLSCTASGFNIKDTYIHWVKQRPEQGLEWIGRIDPANGNTMFASEFQGKATITAYTSSNTAYMQLSSLTSGDTAVYYCARSKIHYDYDEGFAYWGQGTLVTVSS
VL: NIVLTQSPPSLAVSLGQRATVSCRASESVDDYGYSFLHWYQQKPGQPPKLLIYRASNLESGIPARFSGSGSRTDFTLTINPVETDDVATYYCQQSNQNPRTFGGGTKLEIK
modifications: Synthetic: VH AA; Synthetic: VL AA

Tested on: Cyno FGFR2b
Assay: SPR affinity determination, cyno FGFR2b (Example 9)
Type: binding
Description: For affinity determination, antibodies were captured by anti-human Fc antibodies, and used in the affinity assay based on surface plasmon resonance (SPR) technology. SPR signals were analyzed to calculate the association rates (ka) and dissociation rates (kd) by using the one-to-one Langmuir binding model (BIA Evaluation Software, GE Life Sciences). The equilibrium dissociation constant (KD) was calculated as the ratio of kd/ka. Rmax represents the maximal feasible SPR signal generated by an interaction between a ligand-analyte pair and is represented in response units (RU). BGAh9239 and BGA9179 show similar binding profiles to human FGFR2b and cyno FGFR2b, and are similar to their parental antibodies BGAm1823 and BGAm1371, respectively.

**Q.** How did the Rmax turn out when B1 was run?
**A.** 88.7 RU

**Q.** How did the Rmax turn out when B2 was run?
**A.** 97.5 RU

**Q.** Which Rmax does the source give for B3 here?
**A.** 40.8 RU

**Q.** For B4, which Rmax is on record?
**A.** 102.9 RU
